Data as given in patent US12618070B2, “Increasing Atoh1 life to drive sensorineural hair cell differentiation” (Massachusetts Eye and Ear Infirmary, priority 2014, dated 2026).
Substitutions are numbered along the chain they refer to. Numbers in names are those of the source.

B1: S328A: Atoh1 with serine 328 mutated to alanine (protein, UniProt P48985 1-351, looked up, variant S328A)
Transcription factor Atoh1: MSRLLHAEEWAEVKELGDHHRHPQPHHVPPLTPQPPATLQARDLPVYPAELSLLDSTDPRAWLTPTLQGLCTARAAQYLLHSPELGASEAAAPRDEADSQGELVRRSGCGGLSKSPGPVKVREQLCKLKGGVVVDELGCSRQRAPSSKQVNGVQKQRRLAANARERRRMHGLNHAFDQLRNVIPSFNNDKKLSKYETLQMAQIYINALSELLQTPNVGEQPPPPTASCKNDHHHLRTASSYEGGAGASAVAGAQPAPGGGPRPTPPGPCRTRFSGPASSGGYSVQLDALHFPAFEDRALTAMMAQKDLSPSLPGGILQPVQEDNSKTAPRSHRSDGEFSPHSHYSDSDEAS
B2: S334A: Atoh1 with serine 334 mutated to alanine (protein, UniProt P48985 1-351, looked up, variant S334A)
Transcription factor Atoh1: B1 Transcription factor Atoh1 with A328S, S334A
B3: S331A: Atoh1 with serine 331 mutated to alanine (protein, UniProt P48985 1-351, looked up, variant S331A)
Transcription factor Atoh1: B1 Transcription factor Atoh1 with A328S, S331A

tested on: HEK cells; assay: Cycloheximide chase, half-life of truncated and mutated FLAG-Atoh1; format: cell-based; details: cycloheximide 100 ug/ml, 4-hour time frame, compared with wild-type

Molecule	effect of serine to alanine mutation on Atoh1 half-life
B1	modestly prolonged
B2	dramatic effect
B3	modestly prolonged
